At least one peptide structure holds a part that was inferred or is arguable (an end, a ring closure or a residue). Ends that are not written are not given here.
Legend:
[1] = tested on: HIV-1 vector (pRRL.sin.hPGK.GFP) pseudotyped with the VSV G envelope glycoprotein; type: cell-based; details: 10 μM
[2] = tested on: viral envelope-mediated fusion (MT-2/H9 IIIB co-cultures); assay: Syncytium assay, MT-2 cells co-incubated with chronically infected H9IIIB cells; type: cell-based, HIV-1; details: different concentrations
[3] = tested on: primary HIV-1 isolates (R5); assay: Infection of PBMC by primary HIV-1 isolates, p24 ELISA; type: cell-based; details: 10 μM
[4] = tested on: primary R3/R5/X4 isolate from HIV-2 Clade A; assay: Infection of MT-4 cells by primary HIV-2 isolate, p27 ELISA; type: cell-based; details: 10 μM
[5] = target: T1, gp120/CD4 binding (Homo sapiens, UniProt P01730); assay: Attachment of biotin-conjugated recombinant gp120 to rshCD4 (ELISA); details: biotin-conjugated recombinant HIV-1IIIB gp120, plate-adsorbed rshCD4
T1 construct: recombinant soluble human (rsh) CD4 (2 μg/ml) (R&D Systems); purchased R&D Systems (rshCD4)

[6] = tested on: FITC-conjugated HIV-1IIIB gp120; assay: gp120 attachment assay, FITC-gp120 staining of cells by flow cytometry; type: binding; details: MT-4 cells, 5 and 10 μM
Description: In gp120 attachment assays, cells were incubated for 30 min. at 4° C. with 2 μg/ml of FlTC-conjugated HIV-1IIIB gp120 (gp120IIIB, Intracell Corp, London, UK) in PBS plus 2% albumin plus 0.01% NaN3 (PBS A/A) in the presence or absence of CD38 or CD38-derived molecules. Cells were then washed three times in PBS A/A, and fluorescence was acquired by flow cytometry. Fluorescence data were expressed as MeFI and normalized for CD4 expression where necessary.
In gp120 attachment assays, cells were incubated with saturating concentrations of FITC-conjugated gp120 from the HIV-1IIIB strain (gp120IIIB) (Intracell Corp, London, UK) in the presence or absence of CD3851-74, (SEQ ID NO:15, 21), and acquired fluorescence flow-cytometrically. The MeFI was used as an estimate of gp120 binding to cells.
HIV-1 gp120 binding experiments confirmed that CD3851-74 MBP inhibits at the level of gp120 attachment to target cells. In these experiments, MT-2 cells were incubated for 30 min. at 4° C. with saturating concentrations (5 μg/ml) of fluorescein isothiocyanate-labeled (FITC) HIV-1IIIB gp 120 (gp 120IIIB) in PBS plus 2% albumin plus 0.01% NaN3 (PBS A/A) in the presence or absence of 50 nM CD3851-74 MBP. Cells were then washed three times in PBS A/A, and fluorescence was acquired by flow cytometry.

[7] = tested on: primary X4 isolate from HIV-1 Clade E; assay: Infection of MT-4 cells by primary X4 HIV-1 isolate, p24 ELISA; type: cell-based; details: 10 μM

SGPGTTKRFPETVLARCVKYTEIH [CD3851-74]
replication of VSV G pseudotyped HIV-1 vector [1]: did not inhibit replication
syncytium formation [2]: reproduce the inhibitory effects of full-length CD38
replication of primary R5 isolate from HIV-1 Clade A [3]: inhibition of replication
replication of primary R5 isolate from HIV-1 Clade D [3]: inhibition of replication
replication of primary R3/R5/X4 isolate from HIV-2 Clade A [4]: inhibition of replication
attachment of gp120 to CD4 [5]: down-modulated
gp120-FITC binding to cells [6]: reproduce the inhibitory effects of full-length CD38
replication of primary X4 isolate from HIV-1 Clade E [7]: inhibition of replication

Reference: patent US8030444B2, “Microbicidal compositions comprising human CD38 polypeptides derived from the extracellular membrane-proximal region” (priority 2002, dated 2011)
